The values below come from patent US20140242080A1.

By UniProt entry, the sequences of proteins in these tests, tags left out. Residues count along the entry.
UniProt Q6UVK1, residues 30-2322: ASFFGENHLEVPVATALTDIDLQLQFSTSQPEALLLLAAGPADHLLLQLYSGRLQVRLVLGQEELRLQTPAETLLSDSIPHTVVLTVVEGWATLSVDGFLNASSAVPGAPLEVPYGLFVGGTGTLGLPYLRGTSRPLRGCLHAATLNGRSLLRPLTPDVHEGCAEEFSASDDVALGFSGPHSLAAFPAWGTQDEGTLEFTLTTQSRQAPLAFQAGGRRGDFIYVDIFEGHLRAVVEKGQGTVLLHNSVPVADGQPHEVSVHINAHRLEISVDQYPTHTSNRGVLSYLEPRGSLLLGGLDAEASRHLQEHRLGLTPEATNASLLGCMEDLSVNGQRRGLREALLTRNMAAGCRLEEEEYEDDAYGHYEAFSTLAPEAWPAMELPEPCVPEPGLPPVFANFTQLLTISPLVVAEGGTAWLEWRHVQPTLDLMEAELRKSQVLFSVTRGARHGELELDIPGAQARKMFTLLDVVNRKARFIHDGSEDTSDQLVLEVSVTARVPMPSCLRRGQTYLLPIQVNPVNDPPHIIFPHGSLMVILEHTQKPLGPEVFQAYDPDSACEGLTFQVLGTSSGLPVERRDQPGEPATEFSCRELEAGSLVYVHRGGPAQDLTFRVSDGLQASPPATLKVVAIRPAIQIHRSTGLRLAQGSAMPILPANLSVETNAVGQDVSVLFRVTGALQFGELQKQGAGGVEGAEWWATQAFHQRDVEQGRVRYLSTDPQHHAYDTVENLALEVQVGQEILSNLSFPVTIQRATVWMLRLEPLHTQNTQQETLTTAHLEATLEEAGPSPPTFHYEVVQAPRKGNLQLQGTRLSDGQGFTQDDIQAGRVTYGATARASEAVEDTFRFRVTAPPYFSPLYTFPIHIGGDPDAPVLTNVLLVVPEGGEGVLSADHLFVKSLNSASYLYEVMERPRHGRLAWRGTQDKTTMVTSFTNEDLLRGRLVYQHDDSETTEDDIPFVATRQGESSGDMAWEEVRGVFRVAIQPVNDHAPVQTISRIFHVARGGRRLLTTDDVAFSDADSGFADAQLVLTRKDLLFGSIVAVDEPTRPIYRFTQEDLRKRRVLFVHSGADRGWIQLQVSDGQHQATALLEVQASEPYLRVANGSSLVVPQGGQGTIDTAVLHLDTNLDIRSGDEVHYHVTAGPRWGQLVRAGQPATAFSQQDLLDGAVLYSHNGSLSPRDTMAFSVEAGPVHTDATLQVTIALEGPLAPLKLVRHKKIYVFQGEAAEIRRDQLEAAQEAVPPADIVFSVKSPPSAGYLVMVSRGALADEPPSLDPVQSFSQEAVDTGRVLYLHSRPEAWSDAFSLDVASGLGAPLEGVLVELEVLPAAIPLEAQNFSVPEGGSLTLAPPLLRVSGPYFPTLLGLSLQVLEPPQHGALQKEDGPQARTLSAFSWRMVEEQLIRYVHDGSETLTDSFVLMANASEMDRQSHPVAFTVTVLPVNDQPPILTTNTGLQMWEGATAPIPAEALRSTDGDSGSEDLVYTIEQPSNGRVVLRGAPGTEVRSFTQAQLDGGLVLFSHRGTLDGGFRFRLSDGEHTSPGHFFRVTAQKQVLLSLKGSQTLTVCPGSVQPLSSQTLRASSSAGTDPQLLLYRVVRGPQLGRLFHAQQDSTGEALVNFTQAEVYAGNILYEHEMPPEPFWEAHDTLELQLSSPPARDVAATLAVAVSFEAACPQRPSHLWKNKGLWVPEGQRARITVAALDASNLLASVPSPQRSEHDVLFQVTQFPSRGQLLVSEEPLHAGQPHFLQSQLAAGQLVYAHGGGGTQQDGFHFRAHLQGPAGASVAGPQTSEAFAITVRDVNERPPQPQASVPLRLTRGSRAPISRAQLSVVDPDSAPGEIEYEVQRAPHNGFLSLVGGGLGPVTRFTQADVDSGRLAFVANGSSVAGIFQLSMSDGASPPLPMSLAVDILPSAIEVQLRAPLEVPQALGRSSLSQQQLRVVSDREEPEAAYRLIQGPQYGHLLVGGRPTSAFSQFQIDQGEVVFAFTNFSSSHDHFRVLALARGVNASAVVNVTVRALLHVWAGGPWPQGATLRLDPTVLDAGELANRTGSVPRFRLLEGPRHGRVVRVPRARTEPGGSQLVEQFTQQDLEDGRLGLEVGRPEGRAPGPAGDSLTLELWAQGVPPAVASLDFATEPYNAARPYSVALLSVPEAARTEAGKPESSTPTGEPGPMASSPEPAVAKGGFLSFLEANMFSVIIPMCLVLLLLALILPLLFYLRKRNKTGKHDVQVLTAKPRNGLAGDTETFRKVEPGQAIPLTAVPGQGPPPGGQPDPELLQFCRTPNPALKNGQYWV

These are yes or no findings as the source states them, for the method shown. Some entries that bind do so weakly or less than the wild type.

For test [1], the target named is human MCSP expressed on tumor cells (Colo-38, WM266-4, A375, MV-3, HCT-116) (human) (UniProt Q6UVK1). The test is described as follows: flow cytometry on Colo-38 cells, dose-dependent.
Test [2] shares this target. Put plainly: flow cytometry on Colo-38 cells.

B1: reference anti-human MCSP IgG (antibody, V domains shown)
VH: EVQLQESGPGLVKPSQSLSLTCSVTGYSITSGYYWNWIRQFPGNKLEWMGYITYDGSNNYNPSLKNRISITRDTSKNQFFLKLNSVTTEDTATYYCADFDYWGQGTTLTVSS
VL: DIVLTQSPSSLSASLGDRVTISCSASQGIRNYLNWYQQRPDGTVKLLIYYTSSLHSGVPSRFSGSGSGTDYSLTISNLEPEDIATYYCQQYSKLPWTFGGGTKLEIK
On to B1, for which the binding entry in test [1] and in test [2] was “binds” in each case.
